# Laboratory results: the supplement of paper PMC12873370
# “And” between values parts separate entries of the source, which are not always exact repeats. Identical values can stand only once. This is one part of the list. Single values are uncertain, as repeats are few or missing.
# What was measured:
# [1] = system: MEPP (mouse ovarian epithelium Trp53/Pten KO); test: cell viability relative to untreated (fraction); higher = less growth inhibition; conditions: 5 µM; 3 days
# [2] = system: PREPP (mouse prostate epithelium Trp53/Pten KO); test: as above; conditions: 5 µM; 3 days
smiles,measurement,setting,value
O=C1C=CC[C@@H]2[C@H]3CCC[N+]4([O-])CCC[C@@H](CN12)[C@@H]34 (some centres not stated),cell viability,[1],1.71
same,cell viability,[2],0.886
c1c2c(cc3c1OCO3)-c1cc3ccc4c(c3c[n+]1CC2)OCO4,cell viability,[1],1.01
same,cell viability,[2],0.859
NCCc1ccc(O)cc1,cell viability,[1],1.12
same,cell viability,[2],0.81
COc1ccc2c(c1OC)CN1CCc3cc4c(cc3C1C2)OCO4 (configuration not stated),cell viability,[1],0.951
same,cell viability,[2],1.02
COC(=O)C1=CCCN(C)C1,cell viability,[1],0.753
same,cell viability,[2],0.913
O=c1cccc2n1C[C@@H]1CNC[C@H]2C1,cell viability,[1],0.855
same,cell viability,[2],0.893
CC(=O)O[C@H]1C(=O)[C@@]2(C)[C@H]([C@H](OC(=O)c3ccccc3)[C@]3(O)C[C@H](O)C(C)=C1C3(C)C)[C@]1(OC(C)=O)CO[C@@H]1C[C@@H]2O,cell viability,[1],0.867
same,cell viability,[2],0.881
C/C(=C\c1csc(C)n1)[C@@H]1C[C@@H]2O[C@@H]2CCC[C@H](C)[C@H](O)[C@@H](C)C(=O)C(C)(C)[C@@H](O)CC(=O)O1,cell viability,[1],0.753
same,cell viability,[2],0.549
O=c1ccc2ccc3occc3c2o1,cell viability,[1],1.09
same,cell viability,[2],1.26
O=C(O)c1ccc(=O)[nH]c1,cell viability,[1],0.994
same,cell viability,[2],0.905
COc1cc2c3cc1Oc1c(OC)c(OC)cc4c1[C@@H](Cc1cccc(c1)Oc1ccc(c(O)c1)C[C@@H]3N(C)CC2)N(C)CC4,cell viability,[1],0.915
same,cell viability,[2],0.858
CC(C)=CCC[C@@](C)(O)[C@H]1CC[C@]2(C)[C@@H]1[C@H](O)C[C@@H]1[C@@]3(C)CC[C@H](O[C@@H]4O[C@H](CO)[C@@H](O)[C@H](O)[C@H]4O)C(C)(C)[C@@H]3CC[C@]12C,cell viability,[1],1.03
same,cell viability,[2],1
CCNc1nc(Cl)nc(NC(C)C)n1,cell viability,[1],1.15
same,cell viability,[2],0.944
Oc1ccc(Cl)cc1Cl,cell viability,[1],0.911
same,cell viability,[2],0.94
C[C@H]1CCC/C=C/[C@@H]2C[C@H](O)C[C@H]2[C@H](O)/C=C/C(=O)O1,cell viability,[1],0.472
same,cell viability,[2],0.477
CC1=CC(=O)c2c(O)cccc2C1=O,cell viability,[1],0.938
same,cell viability,[2],0.939
NCC(O)c1ccc(O)cc1 (configuration not stated),cell viability,[1],0.893
same,cell viability,[2],0.962
NCC1(CC(=O)O)CCCCC1,cell viability,[1],1.13
same,cell viability,[2],0.902
COc1ccc(C=O)cc1,cell viability,[1],1.17
same,cell viability,[2],1.01
CN1[C@@H]2C[C@@H](OC(=O)[C@H](CO)c3ccccc3)C[C@H]1[C@@H]1O[C@@H]12,cell viability,[1],1.13 and 0.897 and 1
same,cell viability,[2],0.966 and 0.954 and 1.06
NCCc1ccccc1,cell viability,[1],0.867
same,cell viability,[2],0.934
O=C(O)CNC(=O)c1cccnc1,cell viability,[1],0.915
same,cell viability,[2],1.14
CCOc1cc(C=O)ccc1O,cell viability,[1],0.973
same,cell viability,[2],0.935
CNCC(O)c1ccc(O)cc1 (configuration not stated),cell viability,[1],0.965
same,cell viability,[2],1.26
COc1ccc2[nH]cc(CCN)c2c1,cell viability,[1],1.11
same,cell viability,[2],0.815
COc1cc(C(=O)O)cc(OC)c1OC,cell viability,[1],0.87
same,cell viability,[2],1.02
CC(C)[C@]12O[C@H]1[C@@H]1O[C@@]13[C@@]1(C)CCC4=C(COC4=O)[C@@H]1C[C@@H]1O[C@@]13C2=O,cell viability,[1],0.576
same,cell viability,[2],0.57
C[C@]12CC[C@H](O)C[C@H]1CC[C@@H]1[C@@H]2CC[C@]2(C)[C@@H](c3ccc(=O)oc3)CC[C@]12O,cell viability,[1],0.981
same,cell viability,[2],0.847
COc1ccc(C=O)cc1O,cell viability,[1],0.823
same,cell viability,[2],0.939
O=[N+]([O-])C(Br)(CO)CO,cell viability,[1],0.835
same,cell viability,[2],0.93
CC[C@H]1CN2CC[C@H]1C[C@@H]2[C@@H](O)c1ccnc2ccc(OC)cc12,cell viability,[1],0.844
same,cell viability,[2],0.993
C[C@H]1CCCC(=O)CCC/C=C/c2cc(O)cc(O)c2C(=O)O1,cell viability,[1],0.931
same,cell viability,[2],0.893
O=C(Nc1ccccc1)Nc1ccnc(Cl)c1,cell viability,[1],1.23
same,cell viability,[2],0.916
CC(=O)O[C@H]1[C@H]2O[C@]23[C@@H]2CC[C@@H]4C[C@@H](O)CC[C@]4(C)[C@H]2CC[C@]3(C)[C@H]1c1ccc(=O)oc1,cell viability,[1],1.37
same,cell viability,[2],0.837
C=C(C)[C@@H]1[C@H]2OC(=O)[C@@H]1[C@]1(O)C[C@H]3OC34C(=O)O[C@H]2[C@@]41C.CC(C)(O)[C@@H]1[C@H]2OC(=O)[C@@H]1[C@]1(O)C[C@H]3OC34C(=O)O[C@H]2[C@@]41C (some centres not stated),cell viability,[1],1.08
same,cell viability,[2],1.05
CCCC(=O)N[C@H]1CCOC1=O,cell viability,[1],1.13
same,cell viability,[2],0.957
CN1CCc2cc3c(cc2C1C1OC(=O)c2c1ccc1c2OCO1)OCO3 (configuration not stated),cell viability,[1],0.962
same,cell viability,[2],0.929
C[C@]12CC[C@@H](O)C[C@@H]1CC[C@@H]1[C@@H]2CC[C@]2(C)C(=O)CC[C@@H]12,cell viability,[1],0.977
same,cell viability,[2],0.696
CC1=C2[C@H]3OC(=O)[C@@H](C)[C@@H]3CC[C@@]2(C)C=CC1=O,cell viability,[1],1.04
same,cell viability,[2],1.15
COc1cc([C@@H]2c3cc4c(cc3[C@@H](O)[C@H]3COC(=O)[C@H]23)OCO4)cc(OC)c1O,cell viability,[1],0.674
same,cell viability,[2],0.713
CC(C)=CCC[C@]1(C)C=Cc2c(O)c3c(c(CC=C(C)C)c2O1)O[C@]12C(=C[C@@H]4C[C@H]1C(C)(C)O[C@@]2(C/C=C(/C)C(=O)O)C4=O)C3=O,cell viability,[1],0.37
same,cell viability,[2],0.178
O=C/C=C/c1ccccc1,cell viability,[1],1.3 and 1.56
same,cell viability,[2],0.978 and 0.994
CN(C)Cc1c[nH]c2ccccc12,cell viability,[1],0.977
same,cell viability,[2],0.932
c1csc(-c2ccc(-c3cccs3)s2)c1,cell viability,[1],0.9
same,cell viability,[2],0.951
CC(C)C[C@H]1C(=O)N2CCC[C@H]2[C@]2(O)O[C@](NC(=O)[C@@H]3C=C4c5cccc6[nH]c(Br)c(c56)C[C@H]4N(C)C3)(C(C)C)C(=O)N12,cell viability,[1],0.783
same,cell viability,[2],0.694
O=Cc1ccco1,cell viability,[1],1.06
same,cell viability,[2],0.966
CC[C@@]1([C@H]2O[C@H]([C@H]3O[C@@](O)(CO)[C@H](C)C[C@@H]3C)C[C@H]2C)CC[C@H]([C@@]2(C)CC[C@]3(C[C@H](O)[C@@H](C)[C@@H]([C@H](C)[C@H](OC)[C@@H](C)C(=O)O)O3)O2)O1,cell viability,[1],0.597
same,cell viability,[2],0.615
CC(=O)NC1CCSC1=O (configuration not stated),cell viability,[1],0.87
same,cell viability,[2],0.925
C[C@@H]1O[C@@H](O[C@H]2C[C@@H](O)[C@]3(CO)[C@H]4[C@H](O)C[C@]5(C)[C@@H](C6=CC(=O)OC6)CC[C@]5(O)[C@@H]4CC[C@]3(O)C2)[C@H](O)[C@H](O)[C@H]1O,cell viability,[1],0.839
same,cell viability,[2],0.854
O=C1C=CC(=O)c2c(O)cccc21,cell viability,[1],1.09
same,cell viability,[2],0.744
COC(=O)[C@]1(C)CC[C@]2(C)CC[C@]3(C)C4=CC=C5C(=CC(=O)C(O)=C5C)[C@]4(C)CC[C@@]3(C)[C@@H]2C1,cell viability,[1],0.46
same,cell viability,[2],0.717
CCCCCCCCC(=O)NCc1ccc(O)c(OC)c1,cell viability,[1],1.2
same,cell viability,[2],0.811
C1=C2CCCN[C@H]2[C@@H]2C[C@H]1[C@H]1CCCCN1C2,cell viability,[1],1.06
same,cell viability,[2],0.821
C[C@@H]1C[C@@H]([C@H](O)CC2CC(=O)NC(=O)C2)C(=O)[C@@H](C)C1,cell viability,[1],0.509
same,cell viability,[2],0.504
CC1=C(O)C(=O)C=C2C1=CC=C1[C@@]2(C)CC[C@@]2(C)[C@@H]3C[C@](C)(C(=O)O)CC[C@]3(C)CC[C@]12C,cell viability,[1],0.757
same,cell viability,[2],0.582
NCCc1c[nH]c2ccc(O)cc12,cell viability,[1],0.978
same,cell viability,[2],0.97
CN1[C@@H]2CC[C@H]1C[C@@H](OC(=O)C(CO)c1ccccc1)C2 (some centres not stated),cell viability,[1],1.06 and 0.903 and 1.11
same,cell viability,[2],0.879 and 0.911 and 0.984
Oc1cc(Cl)ccc1Oc1ccc(Cl)cc1Cl,cell viability,[1],1.01
same,cell viability,[2],0.742
C=C[C@H]1CN2CC[C@H]1C[C@H]2[C@H](O)c1ccnc2ccccc12,cell viability,[1],0.781
same,cell viability,[2],0.885
COc1cc(CCN)ccc1O,cell viability,[1],1.23
same,cell viability,[2],0.829
COc1cc(C2OCC3C(c4cc(OC)c(O[C@@H]5O[C@H](CO)[C@@H](O)[C@H](O)[C@H]5O)c(OC)c4)OCC23)cc(OC)c1O[C@H]1O[C@@H](CO)[C@H](O)[C@@H](O)[C@@H]1O (some centres not stated),cell viability,[1],0.962
same,cell viability,[2],0.941
CC(C)(C)NCC(O)c1cc(Cl)c(N)c(Cl)c1 (configuration not stated),cell viability,[1],0.937
same,cell viability,[2],0.897
Nc1nc(N)nc(N)n1,cell viability,[1],0.99
same,cell viability,[2],0.951
CO[C@@H]1C[C@@H](C[C@H]2CC[C@H](C)[C@H]([C@@H](C)C(=O)O)O2)O[C@]2(O[C@](C)([C@H]3CC[C@@](C)([C@@H]4O[C@@H]([C@H]5O[C@@](O)(CO)[C@H](C)C[C@@H]5C)C[C@@H]4C)O3)C[C@H]2C)[C@@H]1C,cell viability,[1],0.398
same,cell viability,[2],0.243
CNC1CC(N)C(O)C(OC2OC(CO)C(O)C3OC4(OC(C(N)CO)C(O)C(O)C4O)OC23)C1O (configuration not stated),cell viability,[1],1.15
same,cell viability,[2],0.888
CN1C2CC(OC(=O)C(CO)c3ccccc3)CC1C(O)C2 (configuration not stated),cell viability,[1],0.783
same,cell viability,[2],0.944
